The target in test [1] is T1, nuclear factor erythroid 2-related factor 2 (Nrf2) (human (endogenous in HT-29 and SNU-407 colon cancer cells)) (UniProt Q16236).
T1 sequence: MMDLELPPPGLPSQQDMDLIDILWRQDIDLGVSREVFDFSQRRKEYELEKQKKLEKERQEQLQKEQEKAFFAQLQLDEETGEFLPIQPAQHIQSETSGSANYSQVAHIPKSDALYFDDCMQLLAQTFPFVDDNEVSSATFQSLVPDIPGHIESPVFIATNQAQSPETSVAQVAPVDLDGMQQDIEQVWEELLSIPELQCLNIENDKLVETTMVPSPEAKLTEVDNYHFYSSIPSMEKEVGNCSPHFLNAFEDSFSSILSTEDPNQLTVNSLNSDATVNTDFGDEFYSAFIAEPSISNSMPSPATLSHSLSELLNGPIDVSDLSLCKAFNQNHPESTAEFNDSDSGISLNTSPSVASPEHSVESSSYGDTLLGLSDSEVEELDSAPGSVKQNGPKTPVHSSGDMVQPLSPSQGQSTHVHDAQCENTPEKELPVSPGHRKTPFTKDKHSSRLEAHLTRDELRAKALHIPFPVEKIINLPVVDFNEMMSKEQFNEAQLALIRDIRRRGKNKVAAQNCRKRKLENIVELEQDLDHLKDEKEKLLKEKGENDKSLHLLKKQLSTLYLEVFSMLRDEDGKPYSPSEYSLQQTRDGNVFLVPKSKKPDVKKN
Put plainly: proximity ligation; Duolink kit on fixed, permeabilised colon cancer cells, untreated or treated with 30 uM luteolin; rabbit anti-Nrf2 and mouse anti-p53 primary antibodies.

The target in test [2] is T1, nuclear factor erythroid 2-related factor 2 (Nrf2) (human (endogenous in HT-29 and SNU-407 colon cancer cells)). Put plainly: co-IP; nuclear fraction lysates of colon cancer cells, untreated or treated with 30 uM luteolin, incubated overnight at 4 °C with Nrf2, p53 or IgG antibody; protein A/G PLUS-beads; Western blot for Nrf2 and p53.

These are yes or no findings as the source states them, for the method shown. Binding seen in cells or lysates may run through a third protein. Some results given as binding are weak or reduced against the parent protein; the word gives no strength.

For the substance “p53, a tumor suppressor (from UniProt P04637 1-393)”, the binding result in test [1] and in test [2] was “binds” in each case.
